US20060258562A1
No constants are given. Whether binding was seen depends on the method and setting. In cells and extracts the contact can be indirect. Some binding calls cover weakened binding; strength is not graded here.

Chains of the proteins cited; added tags and fusions are not shown. Lines headed by an entry give the natural chain unless they say otherwise; changes in a name come on top. Residues count along the entry.
UniProt P42227, residues 2-770: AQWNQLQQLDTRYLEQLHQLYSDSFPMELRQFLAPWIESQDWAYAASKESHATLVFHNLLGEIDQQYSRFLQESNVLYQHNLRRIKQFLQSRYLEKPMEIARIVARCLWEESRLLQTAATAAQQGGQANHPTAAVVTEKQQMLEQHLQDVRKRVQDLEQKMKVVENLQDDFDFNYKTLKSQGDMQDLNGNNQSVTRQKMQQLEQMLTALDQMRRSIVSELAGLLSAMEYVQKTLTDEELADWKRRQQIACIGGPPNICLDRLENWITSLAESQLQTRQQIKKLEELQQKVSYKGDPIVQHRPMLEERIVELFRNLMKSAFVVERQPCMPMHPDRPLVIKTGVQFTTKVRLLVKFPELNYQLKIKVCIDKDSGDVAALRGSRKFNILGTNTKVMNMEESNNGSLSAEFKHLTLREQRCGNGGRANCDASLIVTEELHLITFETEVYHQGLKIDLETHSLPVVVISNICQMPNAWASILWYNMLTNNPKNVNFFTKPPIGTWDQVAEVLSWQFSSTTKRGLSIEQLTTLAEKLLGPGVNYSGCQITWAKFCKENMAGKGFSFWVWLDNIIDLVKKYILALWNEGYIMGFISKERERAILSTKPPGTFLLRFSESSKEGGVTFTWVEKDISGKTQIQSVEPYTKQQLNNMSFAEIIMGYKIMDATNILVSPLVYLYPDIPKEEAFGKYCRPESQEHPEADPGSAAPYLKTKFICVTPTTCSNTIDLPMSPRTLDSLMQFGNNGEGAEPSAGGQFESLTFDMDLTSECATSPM
UniProt P28867: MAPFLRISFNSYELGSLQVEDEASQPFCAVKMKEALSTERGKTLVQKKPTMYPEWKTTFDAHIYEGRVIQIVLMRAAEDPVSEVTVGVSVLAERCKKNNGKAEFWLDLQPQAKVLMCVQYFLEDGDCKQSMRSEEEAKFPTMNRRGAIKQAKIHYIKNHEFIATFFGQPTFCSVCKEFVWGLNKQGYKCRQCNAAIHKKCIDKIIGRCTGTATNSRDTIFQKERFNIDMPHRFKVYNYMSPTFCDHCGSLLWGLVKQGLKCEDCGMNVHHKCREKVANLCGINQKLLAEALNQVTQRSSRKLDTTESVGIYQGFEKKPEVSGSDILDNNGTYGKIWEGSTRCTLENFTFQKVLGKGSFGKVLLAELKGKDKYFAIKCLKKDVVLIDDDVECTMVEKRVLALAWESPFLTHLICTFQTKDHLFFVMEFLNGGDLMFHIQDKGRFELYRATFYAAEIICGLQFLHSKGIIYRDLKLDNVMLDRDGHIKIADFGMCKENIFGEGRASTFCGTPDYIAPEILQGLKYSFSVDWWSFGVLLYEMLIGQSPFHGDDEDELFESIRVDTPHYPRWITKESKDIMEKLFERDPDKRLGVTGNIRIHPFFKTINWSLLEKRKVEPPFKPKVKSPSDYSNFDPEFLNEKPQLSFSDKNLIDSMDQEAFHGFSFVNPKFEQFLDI

Key:
[1] = biological target: STAT3 (Signal Transducer and Activator of Transcription 3) (mouse) (UniProt P42227); assay: co-immunoprecipitation from primary keratinocyte lysates
[2] = biological target: STAT3 (Signal Transducer and Activator of Transcription 3) (mouse) (UniProt P42227); assay: co-immunoprecipitation with isoform specific PKC antibodies, anti-STAT3 Western blot

binding [1]: binds
binding [2]: binds
Substance: PKCδ (protein kinase C delta) (from UniProt P28867 1-674) (enzyme)
